# Out of some 340,000 compounds screened, about 170 (0.05%) were called active. The shares of active, inactive and inconclusive entries below differ from those in the screen. The call rests on the fitted dose curve; in most records, active means well fitted inhibition curve with a large enough effect in the signal ratio, with a control signal flat (not every such curve was filed as active); inconclusive means small, poorly fitted or top-dose-only effect, or effect the other way, or a change in a side signal; inactive means flat fitted curve, though single readings scatter; the % refers to the signal ratio. Potencies beside an inconclusive call are fits to weak or partial responses and may not hold up.
# Assay: qHTS Assay to Find Inhibitors of Chronic Active B-Cell Receptor Signaling;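 on activity change, negative = inhibition: plate controls were basal doxycycline-induced cells for no effect and cells given 10 µM MG132 for full effect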
# Settings: ABC-DLBCL IkBa-CBG/CBR reporter, luminescence ratio (green luciferase fused to IkBa over red control in TMD8 lymphoma cells), 4 h; activity change, negative = inhibition: at 46.1 µM (top of the series) unless noted
# Outline: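 Concentration-response series (up to 46 uM) were applied to TMD8 dual-reporter cells for 4 h at 37C with doxycycline. Green/red ratio, after filter-overlap correction, defined %Activity; red signal alone was normalised to basal cells and zero luminescence.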
# Potency means the concentration at half of the fitted maximal effect.
Compound,"activity change, negative = inhibition",Potency
O=C(Nc1ccccc1)OCCCCCOC(=O)Nc1ccccc1,inconclusive: 3.52%,–
O=C(CC(=O)c1ccccc1)Nc1ccc(Cl)cc1,–,"inconclusive: 28.2 µM [falling, single point]"
Cc1cc(C)c(S(=O)(=O)c2cccc(Br)c2C)c(Cl)n1,inconclusive: 3.73%,–
COc1cccc(N/C(SCc2cccc([N+](=O)[O-])c2)=C(/C#N)C(N)=O)c1,–,"inconclusive: 8.91 µM [falling, partial curve, poor fit]"
Cc1nnc2c(NCCc3ccccc3)nc3ccccc3n12,inconclusive: 4.76%,–
CCC(NC(=O)NNC(N)=S)(C(F)(F)F)C(F)(F)F,–,"inconclusive: 31.6 µM [cytotoxic, single point]"
CCSc1nc2c(cnn2-c2ccccc2)c(=O)n1N,–,"inconclusive: 35.5 µM [rising, single point]"
CCN1C(=O)/C(=C\N(C(C)=O)c2ccccc2)OC1=S,–,"inconclusive: 20.6 µM [falling, partial curve]"
COc1ccc(/C=N/N=C(\N)c2nonc2N)cc1OC,–,"inconclusive: 31.6 µM [falling, single point]"
Cc1ccc(S(=O)(=O)N2CCC(CN3C(=O)c4cccc5cccc(c45)C3=O)CC2)cc1,inconclusive: 6.33%,–
O=C(COC(=O)C1CC1)NCc1ccccc1Cl,–,"inconclusive: 23.1 µM [falling, single point]"
CCn1c(SCC(=O)Nc2cc(C)on2)nnc1-c1c[nH]c2ccccc12,–,"inconclusive: 35.5 µM [falling, single point]"
CCN(CC(=O)Nc1ccc(NC(C)=O)cc1)C(=O)CSc1ncnc2sc(C)c(C)c12,inconclusive: 1.34%,–
Cc1ccc(-c2noc(CN(C(=O)c3cccs3)C(C)C)n2)cc1,inconclusive: 7.75%,–
Cc1cc(NC(=O)c2ccc(S(=O)(=O)N(C)C)cc2)no1,inconclusive: 15.7%,–
COc1ccc(OCCCCOc2ccccc2Cl)cc1,inconclusive: 0.863%,–
Cc1ccc(C(=O)N/N=C\c2ccc([N+](=O)[O-])s2)cn1,inactive,–
NS(=O)(=O)c1cc(C(=O)N2CCc3ccccc32)c(Cl)cc1Cl,–,"inconclusive: 4.61 µM [rising, full curve, poor fit]"
Cc1ccsc1/C=N/n1c(=S)[nH]nc(C)c1=O,inconclusive: 13.7%,–
NC(=S)N/N=C/c1ccc(OC(=O)c2cccnc2)cc1,inconclusive: -30%,–
CC(C)OCCCNC(=O)c1cccc2c1C(=O)c1ccc(Cl)cc1S2(=O)=O,inactive,–

Compound,"activity change, negative = inhibition",Potency
CC12CCC(=O)N1C(C(=O)Nc1nc3ccc(F)cc3s1)CS2 (stereo not drawn),inconclusive: 13.5%,–
CCOC(=O)c1[nH]ncc1CN1CCCC(C(=O)c2ccc(SC)cc2)C1 (stereo not drawn),inconclusive: -36.4%,–
O=C(CSc1ncnc2sccc12)Nc1ccccc1,–,"inconclusive: 25.1 µM [falling, single point]"
Cc1nc(SCC(=O)NC2CCS(=O)(=O)C2)c2c3c(sc2n1)CCCC3 (stereo not drawn),inconclusive: 24.8%,–
O=C(NC(=S)NC1CCSC1=O)c1cccs1 (stereo not drawn),–,"inconclusive: 29.1 µM [falling, single point]"
CCOC(=O)C1CCN(Cc2ccc(OC)c(OCc3ccccc3)c2)CC1,inactive,–
Cc1ccc(Cn2c(N/N=C/c3ccncc3)nc3c2c(=O)n(C)c(=O)n3C)cc1,inconclusive: -12.8%,–
CC(=O)c1cccc(NC(=O)c2ccc(-c3ccccc3[N+](=O)[O-])o2)c1,inactive,–
CCc1ccc2c(CC(=O)Nc3cccc(S(=O)(=O)N4CCOCC4)c3)coc2c1,inconclusive: -13.9%,–
Fc1cccc(NC(=S)N2CCCC2)c1,inconclusive: 1.12%,–
CCCCN(C)S(=O)(=O)c1c(C)[nH]c(=O)[nH]c1=O,inconclusive: 7.43%,–
COc1ccc2oc(=O)c(-c3nc4ccccc4o3)cc2c1,inactive,–
O=C(N/N=C/c1cccc([N+](=O)[O-])c1)c1ccc2nc[nH]c2c1,–,"inconclusive: 6.51 µM [falling, partial curve, poor fit]"
CC(=O)NC1(C(F)(F)F)NC(=O)N(c2ccc(F)cc2)C1=O (stereo not drawn),inconclusive: -0.0724%,–
CCOC(=O)N1CCC(Nc2nc3ccccc3n3nnnc23)CC1,inconclusive: -18.5%,–
COc1ccccc1C(=O)NC(=S)Nc1ccc(Cc2ccncc2)cc1,inconclusive: -15.4%,–
Cc1ccc(NC(=O)c2ccccc2SCC(=O)N2CCCC2)cc1S(=O)(=O)N(C)C,inconclusive: -4.69%,–
Cc1nc(SCC(=O)c2ccc(F)cc2)n[nH]1,inconclusive: 0.449%,–
Cc1ccccc1Nc1nc(N)nc(CSc2ccc(F)cc2)n1,inactive,–
O=C(/C=C/c1ccc(-c2ccccc2[N+](=O)[O-])o1)c1ccc(F)cc1,inconclusive: -10.5%,–
N#CCCN(Cc1cccnc1)C(=S)NC(=O)c1ccco1,inconclusive: -6.49%,–

# Grouped by structure, the entries above containing a CF3 group
Compound,"activity change, negative = inhibition",Potency
CCC(NC(=O)NNC(N)=S)(C(F)(F)F)C(F)(F)F,–,"inconclusive: 31.6 µM [cytotoxic, single point]"
CC(=O)NC1(C(F)(F)F)NC(=O)N(c2ccc(F)cc2)C1=O (stereo not drawn),inconclusive: -0.0724%,–

# Following part

Compound,"activity change, negative = inhibition",Potency
S=c1nc[nH]c2c1[nH]c1ccc(Cl)cc12,inconclusive: 12.8%,–
CCc1ccc(C(=O)NNC(=S)Nc2ccc(S(N)(=O)=O)cc2)s1,–,"inconclusive: 22.4 µM [falling, partial curve]"
O=C1CCCN1C(=O)CSc1ccc2ccccc2n1,inconclusive: 19.9%,–
CCOC(=O)c1ccc(-n2c(N)c(C(=O)NCc3ccco3)sc2=S)cc1,inconclusive: 4.4%,–
COCCn1c(SCC(=O)NC2CCCC(C)C2C)nc2ccccc2c1=O (stereo not drawn),inactive,–
COc1ccc(Nc2nc(-c3c(C)nc4ncccn34)cs2)cc1,–,active: 3.55 µM
Cc1ccccc1S(=O)(=O)NNC(=O)C(=O)NNc1ccccn1,inconclusive: 18.3%,–
O=C(c1cc(=O)c2ccccc2o1)N1CCN(c2cccc(Cl)c2)CC1,inconclusive: -6.87%,–
O=C(NCc1ccco1)C1CCCN1C(=O)Nc1ccccc1Cl (stereo not drawn),inconclusive: 1.76%,–
CCCCSCCCNC(=O)Nc1cccc(OC)c1,inconclusive: -13.9%,–
CN(C)S(=O)(=O)c1cccc(NC(=O)CCCSc2ccccc2)c1,–,"inconclusive: 12.6 µM [falling, single point]"
Cc1ccc(Nc2nc(-c3sc(NC(=O)c4cccc(Cl)c4)nc3C)cs2)cc1,–,"inconclusive: 20 µM [falling, partial curve]"
COc1ccc(/C(N)=N/OC(=O)CC2CCCCC2)cc1,inconclusive: 8.58%,–
COc1ccc(Oc2ccc(C(F)(F)F)cc2N)cc1,inconclusive: 19.6%,–
COc1ccc(-n2c(=S)[nH]c3cc(C(=O)NCc4ccccc4OC)ccc3c2=O)c(OC)c1,inactive,–
Cc1cc2ncn(CC(O)COc3cccc(C(=O)O)c3)c2cc1C (stereo not drawn),–,"inconclusive: 5.8 µM [falling, partial curve, poor fit]"
COc1ccc(OC)c2sc(N(CCCN(C)C)C(=O)c3ccc(S(=O)(=O)N4CCc5ccccc5C4)cc3)nc12,inconclusive: 29.4%,–
COc1cc(OC)cc(C(=O)Nc2nnc(SCC(=O)NCC3CCCO3)s2)c1 (stereo not drawn),inconclusive: -8.69%,–
COc1cccc(-c2nnc3n2N=C(c2cc(OC)ccc2OC)CS3)c1,inconclusive: -8.43%,–
CSc1ccccc1NC(=O)C1CC(c2ccccc2Cl)=NO1 (stereo not drawn),inconclusive: -18.8%,–
N#Cc1c(-c2ccc(Cl)cc2)ccn2nc(C3CCCCC3)nc12,–,"inconclusive: 23.1 µM [falling, single point]"

# Random excerpt: four compounds from above.
Compound,"activity change, negative = inhibition",Potency
COc1cc(OC)cc(C(=O)Nc2nnc(SCC(=O)NCC3CCCO3)s2)c1 (stereo not drawn),inconclusive: -8.69%,–
O=C(NCc1ccco1)C1CCCN1C(=O)Nc1ccccc1Cl (stereo not drawn),inconclusive: 1.76%,–
O=C1CCCN1C(=O)CSc1ccc2ccccc2n1,inconclusive: 19.9%,–
CN(C)S(=O)(=O)c1cccc(NC(=O)CCCSc2ccccc2)c1,–,"inconclusive: 12.6 µM [falling, single point]"

# Continuation.

Compound,"activity change, negative = inhibition",Potency
CC1=NCCN1S(=O)(=O)c1ccc(Br)c(C)c1,–,"inconclusive: 35.5 µM [falling, single point]"
Cc1c(Cl)cccc1NC(=O)C1CCN(c2cnccn2)CC1,inconclusive: 4.48%,–
O=C1CCCCCCC1Sc1ccccc1[N+](=O)[O-] (stereo not drawn),–,"inconclusive: 3.66 µM [falling, full curve, poor fit]"
CC(c1ccc(F)cc1)n1c(-c2ccc3ccccc3n2)n[nH]c1=S (stereo not drawn),inactive,–
CCOC(=O)COc1ccc(S(=O)(=O)N2CCN(c3ccc(OC)cc3)CC2)cc1,inconclusive: 14.3%,–
Cc1ccc(-c2nc(NCCN(C)C)c3ccccc3n2)cc1,inconclusive: -11.1%,–
O=C(CCC1CCCCC1)Nc1cc(Cl)ccc1N1CCOCC1,inactive,–
O=C(CCN1C(=O)S/C(=C/c2ccc(Cl)cc2)C1=O)N1CCOCC1,inactive,–
CC(=O)[C@@H]1[C@@H]2C(=O)N(Cc3ccccc3)C(=O)[C@@H]2C2c3ccccc3C=CN21 (stereo partly drawn),inconclusive: -1.33%,–
COc1ccc2oc(C(=O)OCC(=O)Nc3cc(S(=O)(=O)N4CCOCC4)ccc3C)c(C)c2c1,–,"inconclusive: 16.4 µM [falling, partial curve, poor fit]"
Cc1cc(CSc2ccccc2)ccc1NC(=O)c1ccc(Cl)c([N+](=O)[O-])c1,inactive,–
CCOc1ccc(C(CCc2ccccc2)NC(=O)c2ccccc2F)cc1OCC (stereo not drawn),inactive,–
O=C(CCNS(=O)(=O)c1ccc(Br)cc1)NC1CCN(Cc2ccccc2)CC1,inactive,–
CCc1ccc(-c2ccc3nnc(SCC(=O)Nc4cccc(C(C)=O)c4)n3n2)cc1,inconclusive: 0.204%,–
O=C(/C=C/c1ccccc1)NC(=S)Nc1cccnc1,inconclusive: 10.3%,–
CSc1ccc(CNc2nc3ccccc3n3cnnc23)cc1,inconclusive: 10.9%,–
O=C(NC(=S)NCC1CCCO1)c1ccccc1F (stereo not drawn),inactive,–
COc1cc(NC(=O)CCN2CC(C)OC(C)C2)cc(OC)c1 (stereo not drawn),inactive,–
COc1ccc(S(=O)(=O)N2CCOCC2)cc1NC(=O)/C=C/c1ccc(F)cc1,–,"inconclusive: 7.31 µM [falling, partial curve, poor fit]"
CN(C)CCNC=C(C(=O)Nc1ccc(Cl)cc1Cl)C(=O)Nc1ccc(Cl)cc1Cl,inconclusive: 7.83%,–

# — PubChem BioAssay AID493014 (National Center for Advancing Translational Sciences (NCATS), 2011)
